The list is a part of this screen's results and no random one: it covers a few groups of compounds. Not every dose and run of a compound is shown. T/C is the treated group as % of the vehicle group. Some doses have a count of surviving animals in place of a T/C: the source files T/C as zero there, which appears to mark a toxic dose or a test without result, not a measured value. Survivors were counted at the toxicity check, usually on the fifth day, unless a day is given; later deaths do not show. Schedules are NCI's codes, read here as Q, the interval in days (D) or hours (H), X, the number of doses. Where survival is the endpoint, this PubChem deposit counts one and a half times the control or more as active, and values a quarter to a half above the control carry no call in these data; other NCI protocols may use other cut-offs. Some entries show no survivor count and are marked so; the dose need not have been tolerated. Some complexes appear as separate parts, the way the source draws them; their charges need not add up. Some T/C values are followed by the survivors on the day toxicity was checked, most often the fifth; without a count or a note in brackets, all were alive then. Some doses were run more than once; the results are listed from low to high.

The assay concerns P388 leukemia ip, CD2F1 mice, survival T/C. Description: NCI In Vivo Anticancer Drug Screen. Data for tumor model P388 Leukemia (intraperitoneal) in CD2F1 (CDF1) mice. To be noted: T/C endpoint: median survival time, higher T/C = longer survival.
Setting [1] is: dose: 100.0 mg/kg/injection, schedule: Q01DX009 (ip), vehicle: saline.
The mark [2] stands for this setting: dose: 50.0 mg/kg/injection, schedule: Q01DX009 (ip), vehicle: saline with Tween-80.
[3] abbreviates: dose: 100.0 mg/kg/injection, schedule: Q01DX009 (ip), vehicle: saline with Tween-80.
Where [4] appears, read: dose: 200.0 mg/kg/injection, schedule: Q01DX009 (ip), vehicle: saline with Tween-80.

As for `NC(CC(=O)O)c1cccc(N(CCCl)CCCl)c1` (stereo not drawn), the T/C by setting is: (dose: 0.2 mg/kg/injection, schedule: Q04DX003 (ip), vehicle: saline with Tween-80) 118 % of control; (dose: 0.4 mg/kg/injection, schedule: Q04DX003 (ip), vehicle: saline with Tween-80) 118 % of control; (dose: 0.75 mg/kg/injection, schedule: Q04DX003 (ip), vehicle: saline with Tween-80) 136 % of control; (dose: 0.8 mg/kg/injection, schedule: Q04DX003 (ip), vehicle: saline with Tween-80) 131 % of control; (dose: 1.5 mg/kg/injection, schedule: Q04DX003 (ip), vehicle: saline with Tween-80) 140 % of control; (dose: 3.0 mg/kg/injection, schedule: Q04DX003 (ip), vehicle: saline with Tween-80) 150 % of control. The T/C was 141 % of control (dose: 3.13 mg/kg/injection, schedule: Q04DX003 (ip), vehicle: saline with Tween-80); 170 % of control (dose: 6.25 mg/kg/injection, schedule: Q04DX003 (ip), vehicle: saline with Tween-80); 208 % of control (dose: 12.5 mg/kg/injection, schedule: Q04DX003 (ip), vehicle: saline with Tween-80); 150 % of control (dose: 25.0 mg/kg/injection, schedule: Q01DX009 (ip), vehicle: saline); 245 % of control (dose: 37.5 mg/kg/injection, schedule: Q04DX003 (ip), vehicle: saline with Tween-80); 163 % of control (dose: 50.0 mg/kg/injection, schedule: Q01DX009 (ip), vehicle: saline). The T/C by setting is: (dose: 50.0 mg/kg/injection, schedule: Q04DX003 (ip), vehicle: saline with Tween-80) 272 % of control; (dose: 75.0 mg/kg/injection, schedule: Q04DX003 (ip), vehicle: saline with Tween-80) 272 % of control [5 of 6 alive]; under setting [1], 209 % of control; (dose: 100.0 mg/kg/injection, schedule: Q04DX003 (ip), vehicle: saline with Tween-80) 113 % of control [5 of 6 alive]. Also, the survivor count is listed as 0 of 6 (dose: 200.0 mg/kg/injection, schedule: Q04DX003 (ip), vehicle: saline with Tween-80) and 0 of 6 (dose: 400.0 mg/kg/injection, schedule: Q04DX003 (ip), vehicle: saline with Tween-80).
Regarding `O=[N+]([O-])c1cc([N+](=O)[O-])c(-c2cc([N+](=O)[O-])c(-c3c([N+](=O)[O-])cc([N+](=O)[O-])cc3[N+](=O)[O-])o2)c([N+](=O)[O-])c1`, the T/C is 103 % of control under setting [2], 94 % of control under setting [3] and 93 % of control [5 of 6 alive] under setting [4].
Take `CCOCCOCCOP(C)(=O)OC(C)C` (stereo not drawn): the T/C was 100 % of control (dose: 100.0 mg/kg/injection, schedule: Q01DX005 (ip), vehicle: saline) and 98 % of control (dose: 200.0 mg/kg/injection, schedule: Q01DX005 (ip), vehicle: saline).
On to `COP(C)(=O)OC.COP(C)(=O)OC.COP(C)(=O)OC.COP(C)(=O)OC.COP(C)(=O)OC.COP(C)(=O)OC.[Cr+3].[O-][Cl+3]([O-])([O-])O`, for which the T/C by setting is: under setting [2], 106 % of control [survivor count not shown]; under setting [3], 108 % of control [survivor count not shown]; under setting [4], 115 % of control [survivor count not shown].
As to `O=C(OCC(F)([N+](=O)[O-])[N+](=O)[O-])OCC(F)([N+](=O)[O-])[N+](=O)[O-]`, the T/C is 108 % of control under setting [1]; 117 % of control (dose: 200.0 mg/kg/injection, schedule: Q01DX009 (ip), vehicle: saline); 117 % of control (dose: 400.0 mg/kg/injection, schedule: Q01DX009 (ip), vehicle: saline).
On to `COP(C)(=O)O.[Ti]`, for which the T/C is 95 % of control [survivor count not shown] (dose: 50.0 mg/kg/injection, schedule: Q01DX009 (ip), vehicle: Klucel (hydroxypropylcellulose) (HPC)) and 90 % of control [survivor count not shown] (dose: 100.0 mg/kg/injection, schedule: Q01DX009 (ip), vehicle: Klucel (hydroxypropylcellulose) (HPC)).
Regarding `CN1C(=O)N(C)P(=O)(c2ccccc2)P1c1ccccc1` (stereo not drawn), the T/C reads like this: (dose: 60.0 mg/kg/injection, schedule: Q01DX005 (ip), vehicle: saline with Tween-80) 99 % of control; (dose: 120.0 mg/kg/injection, schedule: Q01DX005 (ip), vehicle: saline with Tween-80) 105 % of control; (dose: 240.0 mg/kg/injection, schedule: Q01DX005 (ip), vehicle: saline with Tween-80) 116 % of control.
On to `CC[C@H](C)[C@@H]1NC(=O)/C(=C(\C)O)C1=O`, for which the T/C by setting is: (dose: 12.5 mg/kg/injection, schedule: Q01DX009 (ip), vehicle: saline sonified) 109 % of control; (dose: 25.0 mg/kg/injection, schedule: Q01DX009 (ip), vehicle: saline sonified) 100 % of control; (dose: 50.0 mg/kg/injection, schedule: Q01DX009 (ip), vehicle: saline sonified) 109 % of control.
Take `Cn1cc(N(CCCl)CCCl)c(=O)[nH]c1=O`: the T/C reads like this: (dose: 1.05 mg/kg/injection, schedule: Q04DX003 (ip), vehicle: saline) 159 % of control; (dose: 1.6 mg/kg/injection, schedule: Q04DX003 (ip), vehicle: saline) 213 % of control; (dose: 2.4 mg/kg/injection, schedule: Q04DX003 (ip), vehicle: saline) 250 % of control.
As to `CC(COCOCC(C)([N+](=O)[O-])[N+](=O)[O-])([N+](=O)[O-])[N+](=O)[O-]`, the T/C was 97 % of control (dose: 100.0 mg/kg/injection, schedule: Q04DX003 (ip), vehicle: saline); 97 % of control (dose: 200.0 mg/kg/injection, schedule: Q04DX003 (ip), vehicle: saline); 98 % of control (dose: 400.0 mg/kg/injection, schedule: Q04DX003 (ip), vehicle: saline).
Turning to `COP(C)(=O)O.[Y]`, the T/C is, setting by setting: (dose: 25.0 mg/kg/injection, schedule: Q01DX001 (ip), vehicle: saline with Tween-80) 102 % of control [survivor count not shown]; (dose: 50.0 mg/kg/injection, schedule: Q01DX001 (ip), vehicle: saline with Tween-80) 94 % of control [survivor count not shown]; (dose: 100.0 mg/kg/injection, schedule: Q01DX001 (ip), vehicle: saline with Tween-80) 100 % of control [survivor count not shown]; (dose: 200.0 mg/kg/injection, schedule: Q01DX001 (ip), vehicle: saline with Tween-80) 92 % of control [survivor count not shown]; (dose: 400.0 mg/kg/injection, schedule: Q01DX001 (ip), vehicle: saline with Tween-80) 100 % of control [survivor count not shown].
As for `Cc1cc([N+](=O)[O-])cn1[N+](=O)[O-]`, the T/C reads like this: (dose: 12.5 mg/kg/injection, schedule: Q01DX009 (ip), vehicle: saline with Tween-80) 92 % of control; (dose: 25.0 mg/kg/injection, schedule: Q01DX009 (ip), vehicle: saline with Tween-80) 98 % of control; under setting [2], 109 and 109 % of control [4 of 6 alive]. The survivor count is listed as 0 of 6 under setting [3] and 0 of 6 under setting [4].

These data come from PubChem BioAssay AID330 (DTP/NCI, 2004).
